Series [1] deals with T1, PHF14 full-length WT (Homo sapiens).
T1 sequence (looked up, limits assumed): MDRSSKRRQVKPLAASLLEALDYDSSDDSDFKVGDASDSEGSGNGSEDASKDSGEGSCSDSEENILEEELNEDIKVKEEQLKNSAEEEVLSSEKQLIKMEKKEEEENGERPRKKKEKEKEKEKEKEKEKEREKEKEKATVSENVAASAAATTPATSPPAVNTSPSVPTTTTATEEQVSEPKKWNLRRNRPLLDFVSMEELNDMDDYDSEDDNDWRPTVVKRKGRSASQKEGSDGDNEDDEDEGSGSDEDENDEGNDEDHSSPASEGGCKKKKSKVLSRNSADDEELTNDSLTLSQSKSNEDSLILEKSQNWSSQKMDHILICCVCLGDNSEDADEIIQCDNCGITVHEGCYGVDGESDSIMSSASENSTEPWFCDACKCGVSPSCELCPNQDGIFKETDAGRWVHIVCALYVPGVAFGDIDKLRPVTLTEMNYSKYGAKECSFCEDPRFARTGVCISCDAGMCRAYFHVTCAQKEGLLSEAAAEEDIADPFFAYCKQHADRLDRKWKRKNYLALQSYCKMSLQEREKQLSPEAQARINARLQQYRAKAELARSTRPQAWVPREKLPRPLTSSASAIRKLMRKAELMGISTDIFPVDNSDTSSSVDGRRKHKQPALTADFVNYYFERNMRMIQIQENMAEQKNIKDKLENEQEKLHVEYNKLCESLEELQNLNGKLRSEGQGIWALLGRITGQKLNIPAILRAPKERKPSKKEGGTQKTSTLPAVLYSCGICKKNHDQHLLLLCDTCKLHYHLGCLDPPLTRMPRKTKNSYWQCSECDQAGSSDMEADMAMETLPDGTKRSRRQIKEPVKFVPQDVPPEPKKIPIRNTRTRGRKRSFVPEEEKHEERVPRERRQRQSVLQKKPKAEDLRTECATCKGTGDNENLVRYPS
Briefly: EMSA. The settings on record: EMSA: LightShift kit protocol, 0.5x TBE native PAGE, buffer not stated; recombinant protein; protein details: His; label: biotin (EMSA). (In general: Mobility shift assays separate free from complexed probe on a gel.)

Series [2] deals with T2, PHF14 ePHD domain WT (Homo sapiens) (UniProt O94880).
T2 sequence (looked up, limits assumed): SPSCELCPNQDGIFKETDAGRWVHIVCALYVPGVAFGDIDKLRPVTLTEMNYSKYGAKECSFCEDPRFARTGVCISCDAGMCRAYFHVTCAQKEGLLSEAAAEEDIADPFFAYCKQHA
Briefly: EMSA. The settings on record: EMSA: LightShift kit protocol, 0.5x TBE native PAGE, buffer not stated; recombinant protein; protein details: His (EMSA, purification method), FLAG (SPR); label: biotin (EMSA).

The exact form of at least one protein or probe is not confirmed. Weaker means in comparison with the reference protein, sequence or condition of that experiment. For some assays here: At least one verdict rests on a figure or table, not on a statement of the authors. Tags and fusion partners may be left off the protein sequences shown.

With “CATTAGATGATAGCATTAGATGATAG (double strand) [AT-rich probe]”, the binding result in series [1] and in series [2] was “binds more weakly” throughout.

Source of the values: paper PMC10113255, “PHF14 enhances DNA methylation of SMAD7 gene to promote TGF-β-driven lung adenocarcinoma metastasis”.
